The exact form of at least one protein or probe is not confirmed. Where cells or extracts were used, other partners may take part. Tags and fusion partners may be left off the protein sequences shown.
Target: T1, EhTRF-like III (Entamoeba histolytica) (UniProt C4LSY4)
T1 sequence (looked up): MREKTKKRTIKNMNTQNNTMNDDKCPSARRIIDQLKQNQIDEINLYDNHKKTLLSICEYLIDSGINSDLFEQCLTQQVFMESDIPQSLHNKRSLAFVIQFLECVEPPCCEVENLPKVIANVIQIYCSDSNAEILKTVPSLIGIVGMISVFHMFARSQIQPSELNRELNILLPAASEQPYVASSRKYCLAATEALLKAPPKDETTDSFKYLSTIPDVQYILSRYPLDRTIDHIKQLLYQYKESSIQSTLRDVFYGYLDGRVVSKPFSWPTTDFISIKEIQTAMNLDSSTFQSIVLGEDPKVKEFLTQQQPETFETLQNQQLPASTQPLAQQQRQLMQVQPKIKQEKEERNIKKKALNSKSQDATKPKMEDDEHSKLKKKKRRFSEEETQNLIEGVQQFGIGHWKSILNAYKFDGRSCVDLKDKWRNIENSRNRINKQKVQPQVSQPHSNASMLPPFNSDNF
Assay: EMSA supershift
Settings: anti-EhTRF-like III antibody, complex III enriched on overexpression; 12 mM HEPES pH 7.9, 60 mM KCl, 5 mM MgCl2, 1 mM EDTA, 4 mM Tris-HCl, 5 mM DTT, 10% glycerol, 4 mM spermidine, 50 ng poly dI-dC; protein in an extract; residues 1-460; protein details: N-terminal Myc (pKT-3M); label: 32P

“GCTCTATTAGTATTTTAGTATTTTAGTATTTTAGTATT / CATCTAGAGCAATACTAAAATACTAAAATACTAAAATACTAA [EhTEL]”: binds.
